These results are taken from paper PMC7862700.

The chains behind the UniProt entries cited, without tags or fusion partners. Where a name states a change or a piece, a line headed by the entry shows the natural chain unless it says otherwise.
UniProt Q9Y603: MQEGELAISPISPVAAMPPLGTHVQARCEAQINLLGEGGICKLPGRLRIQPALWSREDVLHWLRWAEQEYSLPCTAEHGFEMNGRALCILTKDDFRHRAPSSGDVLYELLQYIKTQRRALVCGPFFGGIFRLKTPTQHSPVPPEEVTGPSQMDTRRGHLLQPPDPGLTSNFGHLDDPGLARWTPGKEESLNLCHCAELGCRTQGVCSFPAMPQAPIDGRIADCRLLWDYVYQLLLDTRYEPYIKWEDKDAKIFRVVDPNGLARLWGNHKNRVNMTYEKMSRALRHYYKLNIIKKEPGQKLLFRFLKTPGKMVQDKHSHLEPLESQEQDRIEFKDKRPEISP
UniProt P41212: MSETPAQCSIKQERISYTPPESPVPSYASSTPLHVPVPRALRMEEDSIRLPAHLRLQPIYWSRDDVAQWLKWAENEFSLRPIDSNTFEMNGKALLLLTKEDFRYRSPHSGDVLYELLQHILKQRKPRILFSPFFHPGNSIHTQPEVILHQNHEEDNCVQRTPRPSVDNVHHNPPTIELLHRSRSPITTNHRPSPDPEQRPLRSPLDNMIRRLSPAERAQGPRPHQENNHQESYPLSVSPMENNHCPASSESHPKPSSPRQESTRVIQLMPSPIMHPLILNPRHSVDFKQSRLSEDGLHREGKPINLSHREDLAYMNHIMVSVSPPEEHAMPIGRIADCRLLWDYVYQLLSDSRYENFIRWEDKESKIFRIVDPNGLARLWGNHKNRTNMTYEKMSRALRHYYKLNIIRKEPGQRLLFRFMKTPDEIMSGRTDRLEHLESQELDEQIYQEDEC

Only a part is listed here, and it is no random draw. At the low end of the ranking the order means little.

In the first test the target is T1, ELF3 (UniProt P78545).
T1 sequence: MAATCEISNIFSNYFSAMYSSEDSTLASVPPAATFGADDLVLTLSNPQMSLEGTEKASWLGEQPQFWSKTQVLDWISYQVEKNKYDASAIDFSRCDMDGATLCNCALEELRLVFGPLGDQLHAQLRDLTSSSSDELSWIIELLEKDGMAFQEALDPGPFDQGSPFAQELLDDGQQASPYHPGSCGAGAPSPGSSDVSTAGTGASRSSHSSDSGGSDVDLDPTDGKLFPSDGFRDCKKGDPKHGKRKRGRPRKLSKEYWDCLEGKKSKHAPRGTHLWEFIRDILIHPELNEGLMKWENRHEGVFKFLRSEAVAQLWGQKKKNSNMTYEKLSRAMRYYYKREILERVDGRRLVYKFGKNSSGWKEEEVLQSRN
In words: DAPPL (digital affinity profiling via proximity ligation, sequencing). The following applies: 10 mM Tris-HCl pH 7.5, 50 mM NaCl, 1 mM DTT, 4% glycerol, room temperature, 30 min; GST-TFs on glutathione beads, 16-mer random dsDNA library, 0.1% …; high values mean tight binding; double strand, one strand shown; scale: fold enrichment (6-mer frequency, TF over GST control).
In turn, GGAGTC yielded a binding signal of 0.209.

For GAGGAG, the binding signal amounted to 0.239.

The sequence TTGGAC registered a binding signal of 0.86.

GAGTTG came in with a binding signal of 0.39.

In turn, AAGTGA had a binding signal of 0.645.

Turning to GACTCA, the binding signal came to 0.814.

In turn, AGAGGC came in with a binding signal of 0.691.

The sequence AGGGTC yielded a binding signal of 0.861.

Sequence CGGTGT had a binding signal of 0.704.

TGGGAG gave a binding signal of 0.483.

Sequence GGGAGC had a binding signal of 0.465.

AGGTCG: the binding signal came to 0.478.

GCCGGC yielded a binding signal of 0.801.

Regarding CTAGTC, the binding signal is 0.831.

Consider CAGTAA, for which the binding signal is 0.789.

In turn, ACCAGG registered a binding signal of 0.839.

GTCAGC gave a binding signal of 0.715.

CCCAGT showed a binding signal of 0.602.

In turn, GGGGGA returned a binding signal of 0.564.

CAACAG registered a binding signal of 1.03.

The sequence GACAGA returned a binding signal of 0.68.

The sequence GGACCG registered a binding signal of 0.712.

Sequence AGACAC returned a binding signal of 0.714.

AAGGAG came in with a binding signal of 0.321.

TGCCGT: the binding signal came to 0.809.

As for ATCGGG, the binding signal worked out at 0.467.

GCAGTA showed a binding signal of 0.954.

In turn, CAGTGC had a binding signal of 0.787.

As to GCCGTT, the binding signal turned out to be 0.859.

Turning to AGGGGG, the binding signal is 0.698.

The sequence CAGGTC registered a binding signal of 0.756.

The sequence GTCCGA displayed a binding signal of 0.862.

With AGCCCG, the binding signal was found to be 0.816.

For GTAGGT, the binding signal amounted to 0.812.

Consider GACTAG, for which the binding signal turned out to be 0.821.

For the sequence GCATGG, the binding signal is 0.839.

As to AGGGCC, the binding signal was found to be 0.805.

Regarding GGGGTA, the binding signal turned out to be 0.744.

A further test has as its target ETV7 (UniProt Q9Y603). Described as above. The following applies: 10 mM Tris-HCl pH 7.5, 50 mM NaCl, 1 mM DTT, 4% glycerol, room temperature, 30 min; GST-TFs on glutathione beads, 16-mer random dsDNA library, 0.1% …; high values mean tight binding; double strand, one strand shown; scale: fold enrichment (6-mer frequency, TF over GST control).
With GGAGTC, the binding signal worked out at 0.267.

Consider GAGGAG, for which the binding signal was 0.264.

TTGGAC returned a binding signal of 0.947.

The sequence GAGTTG yielded a binding signal of 0.544.

AAGTGA gave a binding signal of 0.705.

Sequence GACTCA gave a binding signal of 0.903.

AGAGGC came in with a binding signal of 0.745.

Sequence AGGGTC had a binding signal of 0.892.

For the sequence CGGTGT, the binding signal turned out to be 0.703.

In the case of TGGGAG, the binding signal turned out to be 0.509.

GGGAGC: the binding signal was determined as 0.426.

AGGTCG: the binding signal was 0.562.

As for GCCGGC, the binding signal is 0.816.

Consider CTAGTC, for which the binding signal was found to be 0.864.

CAGTAA gave a binding signal of 0.79.

Sequence ACCAGG registered a binding signal of 0.717.

Consider GTCAGC, for which the binding signal is 0.664.

CCCAGT showed a binding signal of 0.745.

In the case of GGGGGA, the binding signal was 0.531.

Consider CAACAG, for which the binding signal turned out to be 0.967.

GACAGA returned a binding signal of 0.715.

Sequence GGACCG returned a binding signal of 0.82.

AGACAC gave a binding signal of 0.823.

As to AAGGAG, the binding signal came to 0.396.

TGCCGT came in with a binding signal of 0.951.

ATCGGG displayed a binding signal of 0.517.

The sequence GCAGTA displayed a binding signal of 0.851.

In turn, CAGTGC displayed a binding signal of 0.805.

Regarding GCCGTT, the binding signal stood at 0.769.

As to AGGGGG, the binding signal worked out at 0.766.

In the case of CAGGTC, the binding signal is 0.717.

In turn, GTCCGA gave a binding signal of 0.922.

For the sequence AGCCCG, the binding signal stood at 0.884.

Sequence GTAGGT returned a binding signal of 0.716.

GACTAG gave a binding signal of 0.84.

In turn, GCATGG registered a binding signal of 0.878.

Take AGGGCC: the binding signal came out at 0.837.

GGGGTA showed a binding signal of 0.87.

A further test concerns the target ETV6 (UniProt P41212). The description is as above. The following applies: 10 mM Tris-HCl pH 7.5, 50 mM NaCl, 1 mM DTT, 4% glycerol, room temperature, 30 min; GST-TFs on glutathione beads, 16-mer random dsDNA library, 0.1% …; high values mean tight binding; double strand, one strand shown; scale: fold enrichment (6-mer frequency, TF over GST control).
GGAGTC yielded a binding signal of 0.214.

Consider GAGGAG, for which the binding signal was found to be 0.227.

Take TTGGAC: the binding signal came out at 0.92.

Regarding GAGTTG, the binding signal came to 0.528.

In turn, AAGTGA came in with a binding signal of 0.731.

GACTCA yielded a binding signal of 0.957.

Take AGAGGC: the binding signal turned out to be 0.733.

AGGGTC returned a binding signal of 0.886.

Turning to CGGTGT, the binding signal stood at 0.729.

For TGGGAG, the binding signal worked out at 0.462.

The sequence GGGAGC had a binding signal of 0.437.

For the sequence AGGTCG, the binding signal is 0.532.

With GCCGGC, the binding signal is 0.868.

The sequence CTAGTC had a binding signal of 0.675.

As for CAGTAA, the binding signal came to 0.744.

Take ACCAGG: the binding signal stood at 0.738.

GTCAGC displayed a binding signal of 0.662.

For CCCAGT, the binding signal stood at 0.624.

The sequence GGGGGA showed a binding signal of 0.596.

Consider CAACAG, for which the binding signal came to 0.961.

For GACAGA, the binding signal was determined as 0.598.

In turn, GGACCG came in with a binding signal of 0.829.

Sequence AGACAC displayed a binding signal of 0.781.

As to AAGGAG, the binding signal was 0.374.

TGCCGT came in with a binding signal of 0.827.

In the case of ATCGGG, the binding signal amounted to 0.416.

As for GCAGTA, the binding signal amounted to 0.92.

For CAGTGC, the binding signal came out at 0.78.

Sequence GCCGTT came in with a binding signal of 0.779.

For the sequence AGGGGG, the binding signal turned out to be 0.56.

CAGGTC displayed a binding signal of 0.622.

GTCCGA returned a binding signal of 0.915.

With AGCCCG, the binding signal is 0.855.

With GTAGGT, the binding signal stood at 0.851.

Take GACTAG: the binding signal was determined as 0.667.

GCATGG: the binding signal is 0.812.

AGGGCC displayed a binding signal of 0.899.

GGGGTA came in with a binding signal of 0.675.
